# PubChem BioAssay AID493014 (National Center for Advancing Translational Sciences (NCATS), 2011)
# Screen size: about 340,000 compounds; about 170 (0.05%) were called active. The shares of active, inactive and inconclusive entries below differ from those in the screen. Calls follow the shape of the dose curve; as a rule, active = well fitted inhibition curve with a large enough effect in the signal ratio, with a control signal flat (not every such curve was filed as active); inconclusive = small, poorly fitted or top-dose-only effect, or effect the other way, or a change in a side signal; inactive = flat fitted curve, though single readings scatter; the % refers to the signal ratio. Potencies of inconclusive entries are doubtful fits and often do not repeat.
# Experiment: qHTS Assay to Find Inhibitors of Chronic Active B-Cell Receptor Signaling;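 as to activity change, negative = inhibition: plate controls were basal doxycycline-induced cells for no effect and cells given 10 µM MG132 for full effect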
# Conditions: ABC-DLBCL IkBa-CBG/CBR reporter, luminescence ratio (green luciferase fused to IkBa over red control in TMD8 lymphoma cells), 4 h; activity change, negative = inhibition: at 46.1 µM (top of the series) unless noted
# Procedure, shortened: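 Doxycycline induced both beetle luciferases in TMD8 lymphoma cells; IKK-driven degradation limits the IkappaBalpha-fused green signal, while red luminescence normalises for cell number and nonspecific effects. Compounds tested up to 46 uM, 4 hrs.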
# Potency is read from the fitted curve at half-maximal effect.
SMILES,"activity change, negative = inhibition",Potency
CN(CC(=O)Nc1cccc(F)c1)CC(=O)N1CCCCC1,inconclusive: 6.13%,
COc1ccc(C(=O)O/N=C(\C)c2cnccn2)cc1,inconclusive: 8.52%,
Cc1cccc2sc(N(Cc3cccnc3)C(=O)C3CCCCC3)nc12,,"inconclusive: 17.8 µM [rising, partial curve, poor fit]"
O=C(Nc1cccc(C(=O)O)c1)/C(=C\c1ccc2c(c1)OCO2)NC(=O)c1ccco1,inconclusive: 19.1%,
Cc1ccc(S(=O)(=O)N2CCC[C@H]2C(=O)Nc2ccccc2Cl)cc1,inactive,
COc1ccc(-c2cnc(N)n2C)cc1,inconclusive: 22.8%,
O=C(C1CC1)N1N=C(c2ccc(Cl)cc2)CC1(O)C(F)(F)F (configuration not stated),inactive,
Cc1cc(C)nc(-n2nc(C)cc2NC(=O)CNC(C)c2ccccc2)n1 (configuration not stated),inconclusive: 4.95%,
COC(=O)C1(Cc2cc(-c3ccc(Cl)cc3)no2)CCN(C(=O)OC(C)(C)C)CC1,inconclusive: 11.2%,
COc1ccc(CNC(=O)COC(=O)c2ccc(S(=O)(=O)NCc3ccco3)cc2)cc1,inconclusive: -1.01%,
CCc1ccc2[nH]c(=O)c(C3C(C#N)=C(N)Oc4c3ccc3cccnc43)cc2c1 (configuration not stated),inactive,
CSc1cccc(NC(=O)Nc2ccccc2C(N)=O)c1,,"inconclusive: 22.4 µM [falling, single point]"
CC1Cc2ccccc2N1C(=O)CN1CCC(n2nnc3cc(C(F)(F)F)ccc32)CC1 (configuration not stated),inactive,
COC(=O)CN(C)C1CC(=O)N(c2ccc(Cl)cc2)C1=O (configuration not stated),inconclusive: -14.9%,
NC(=O)c1ccsc1NC(=O)COC(=O)Cc1c[nH]c2ccccc12,,"inconclusive: 18.4 µM [falling, partial curve, poor fit]"
N#Cc1c(NCCN)nc(-c2ccco2)c2c1CCCC2,,"inconclusive: 7.31 µM [rising, partial curve, poor fit]"
COc1ccc(-c2cc(C(=O)OCC(=O)N3CCOCC3)c3ccccc3n2)cc1,,"inconclusive: 23.1 µM [falling, single point]"
OCCNC(=S)NC1CCCCC1,inactive,
COc1ccccc1NC(=O)Cc1noc(CSc2cccc[n+]2[O-])n1,,active: 23.1 µM
COc1ccccc1N1CCN(C2=Nc3cccc4cccc2c34)CC1,,"inconclusive: 35.5 µM [falling, single point]"
CC1CC(OCC(O)CN2CCCCC2C)CC(C)(C)C1 (configuration not stated),inconclusive: 4.02%,
O=C1OCC2=C1C(c1ccc(F)cc1)c1cc3c(cc1N2)OCO3 (configuration not stated),,"inconclusive: 0.112 µM [falling, full curve, poor fit]"

# Entries of single compounds, looked up by structure:
# Cc1cccc2sc(N(Cc3cccnc3)C(=O)C3CCCCC3)nc12 reads Potency: inconclusive: 17.8 µM [rising, partial curve, poor fit]
# COc1ccc(CNC(=O)COC(=O)c2ccc(S(=O)(=O)NCc3ccco3)cc2)cc1 reads activity change, negative = inhibition: inconclusive: -1.01%
